# At least one structure is not confirmed: it was looked up by name or label, or the drawing left a doubt.
# Tested on: pregnancy-induced hypertension syndrome model mice (placenta-specific hsFLT1 expression)
# Test: Blood pressure (tail-cuff) in LV-hsFLT1 pregnancy-induced hypertension syndrome model mice
# Format: in vivo, mouse
smiles,measurement,setting,value
"CC[C@H](C)C(=O)O[C@H]1C[C@H](O)C=C2C=C[C@H](C)[C@H](CC[C@@H](O)C[C@@H](O)CC(=O)O)[C@H]21 [pravastatin, Monosodium(3R,5R)-3,5-dihydroxy-7-{(1S,2S,6S,8S,8aR)-6-hydroxy-2-methyl-8-[(2S)-2-methylbutanoyloxy]-1,2,6,7,8,8a-hexahydronaphthalen-1-yl}heptanoate]",hypertension induced by placenta-specific hsFLT1 expression,LV-hsFLT1 model mice,improved
same,effect on hypertension,pravastatin 5 μg/head i.p. every day from E10.5 or earlier,a prophylactic/therapeutic effect on hypertension was observed
same,blood pressure,pravastatin 5 μg/head i.p. every day from E13.5,"decreased the blood pressure, but the decrease was not significant"
